Test results from patent US7906486B2, “Method of treating or preventing tissue deterioration, injury or damage due to disease of mucosa” (SciClone Pharmaceuticals, Inc., priority 2007, dated 2011).
Values joined by “and” are separate entries in the source; they are usually repeats but may differ in a detail not shown here. Equal entries are not always repeated. This continues a long series; more values of the same kind are listed elsewhere.

Assay: Weights and survival (Example 4, SCI-04)
Format: in vivo, Syrian Golden Hamsters
Design: unit not given here
Conditions: individual animals
Method: All animals were weighed daily and their survival recorded, in order to assess possible differences in animal weight among treatment groups as an indication for mucositis severity and/or possible toxicity resulting from the treatments.
There were no significant differences in weight changes between study groups. The mean daily percent weight change data was evaluated. The saline treated control hamsters gained an average of 46.5% of their starting weight during the study. Hamsters in the group receiving SCV-07 at 10 μg/kg on days −1 to 20 gained an average of 51.3% of their starting weight during the study. Hamsters in the group receiving SCV-07 at 100 μg/kg on days −1 to 20 gained an average of 46.7% of their starting weight during the study. Hamsters in the group receiving SCV-07 at 1 mg/kg from day −1 to day 20 gained an average of 48.8% of their starting weight during the study. The significance of these differences was evaluated by calculating the area-under-the-curve (AUC) for the weight gain of each animal, and then comparing the different treatment groups using a One-Way ANOVA test.

N[C@H](CCC(=O)N[C@@H](Cc1c[nH]c2ccccc12)C(=O)O)C(=O)O [SCV-07, γ-D-glutamyl-L-tryptophan]
Animal weight (Group 3 (SCV-07 100 μg/kg, day −1 to day 20), day 15): 109 and 97 and 103 (2×) and 131 and 95 (2×) and 110 and 128 and 116
Animal weight (Group 3 (SCV-07 100 μg/kg, day −1 to day 20), day 16): 110 and 98 and 103 and 132 and 97 (2×) and 101 and 128 and 117 and 105
Animal weight (Group 3 (SCV-07 100 μg/kg, day −1 to day 20), day 17): 112 and 100 (2×) and 106 (2×) and 134 and 99 and 103 and 129 and 119
Animal weight (Group 3 (SCV-07 100 μg/kg, day −1 to day 20), day 18): 114 and 102 and 107 and 134 and 101 (2×) and 104 and 132 and 120 and 108
Animal weight (Group 3 (SCV-07 100 μg/kg, day −1 to day 20), day 19): 115 and 103 and 110 and 140 and 101 and 105 and 134 and 123 and 112 and 102
Animal weight (Group 3 (SCV-07 100 μg/kg, day −1 to day 20), day 20): 118 and 104 and 110 and 139 and 105 and 106 and 136 and 123 and 112 and 102
Animal weight (Group 3 (SCV-07 100 μg/kg, day −1 to day 20), day 21): 117 (2×) and 107 and 113 and 142 and 106 (2×) and 138 and 126 and 104
Animal weight (Group 3 (SCV-07 100 μg/kg, day −1 to day 20), day 22): 123 and 109 (2×) and 114 and 146 and 108 and 139 and 128 and 118 and 107
Animal weight (Group 3 (SCV-07 100 μg/kg, day −1 to day 20), day 23): 123 and 108 and 113 and 146 and 106 and 109 and 138 and 128 and 117 and 107
Animal weight (Group 3 (SCV-07 100 μg/kg, day −1 to day 20), day 24): 128 and 113 (2×) and 117 and 146 and 112 and 141 and 131 and 123 and 111
Animal weight (Group 3 (SCV-07 100 μg/kg, day −1 to day 20), day 25): 127 and 112 (2×) and 117 and 148 and 115 and 143 and 133 and 123 and 114
Animal weight (Group 3 (SCV-07 100 μg/kg, day −1 to day 20), day 26): 130 and 115 and 123 and 149 and 118 and 113 and 146 and 132 and 125 and 116
Animal weight (Group 3 (SCV-07 100 μg/kg, day −1 to day 20), day 27): 130 and 112 and 119 and 149 and 116 and 113 and 146 and 133 and 126 and 115
Animal weight (Group 3 (SCV-07 100 μg/kg, day −1 to day 20), day 28): 133 and 117 and 123 and 154 and 120 and 116 and 149 and 137 and 130 and 118
Animal weight (Group 3 (SCV-07 100 μg/kg, day −1 to day 20), day −1): 87 and 81 and 85 and 104 and 78 and 92 and 103 and 96 and 83 and 77
Animal weight (Group 4 (SCV-07 1 mg/kg, day −1 to day 20), day 0, 1 mg/kg): 96 (4×) and 91 and 85 and 88 (2×) and 102 and 97
Animal weight (Group 4 (SCV-07 1 mg/kg, day −1 to day 20), day 1, 1 mg/kg): 94 and 93 (2×) and 89 and 85 (2×) and 97 and 104 and 83 and 99
Animal weight (Group 4 (SCV-07 1 mg/kg, day −1 to day 20), day 2, 1 mg/kg): 98 and 95 and 90 and 89 and 101 (2×) and 87 and 108 and 93 and 85
Animal weight (Group 4 (SCV-07 1 mg/kg, day −1 to day 20), day 3, 1 mg/kg): 103 and 99 and 94 and 92 and 106 and 93 (2×) and 114 and 98 and 107
Animal weight (Group 4 (SCV-07 1 mg/kg, day −1 to day 20), day 4, 1 mg/kg): 106 and 103 (2×) and 100 and 96 (2×) and 108 and 115 and 93 and 107
Animal weight (Group 4 (SCV-07 1 mg/kg, day −1 to day 20), day 5, 1 mg/kg): 108 and 104 and 101 and 98 and 111 and 99 and 120 and 105 and 95 and 112
Animal weight (Group 4 (SCV-07 1 mg/kg, day −1 to day 20), day 6, 1 mg/kg): 110 and 106 and 103 (3×) and 115 and 119 and 107 and 95 and 113
Animal weight (Group 4 (SCV-07 1 mg/kg, day −1 to day 20), day 7, 1 mg/kg): 111 and 109 and 107 and 104 and 118 and 105 and 123 and 110 and 98 and 115
Animal weight (Group 4 (SCV-07 1 mg/kg, day −1 to day 20), day 8, 1 mg/kg): 112 and 110 (2×) and 120 and 105 and 108 and 125 and 113 and 100 and 117
Animal weight (Group 4 (SCV-07 1 mg/kg, day −1 to day 20), day 9, 1 mg/kg): 112 and 111 and 110 and 107 and 121 and 109 and 127 and 113 and 102 and 118
Animal weight (Group 4 (SCV-07 1 mg/kg, day −1 to day 20), day 10, 1 mg/kg): 113 (3×) and 114 and 109 and 124 and 128 and 116 and 104 and 120
Animal weight (Group 4 (SCV-07 1 mg/kg, day −1 to day 20), day 11, 1 mg/kg): 111 and 113 and 115 and 112 and 122 and 114 and 127 and 116 and 102 and 123
Animal weight (Group 4 (SCV-07 1 mg/kg, day −1 to day 20), day 12, 1 mg/kg): 113 (3×) and 114 and 126 and 118 and 127 and 116 and 104 and 125
Animal weight (Group 4 (SCV-07 1 mg/kg, day −1 to day 20), day 13, 1 mg/kg): 113 (3×) and 114 and 124 and 120 and 122 and 115 and 104 and 125
Animal weight (Group 4 (SCV-07 1 mg/kg, day −1 to day 20), day 14, 1 mg/kg): 114 (2×) and 113 (2×) and 115 and 124 and 121 and 125 and 103 and 127
Animal weight (Group 4 (SCV-07 1 mg/kg, day −1 to day 20), day 15, 1 mg/kg): 112 (2×) and 123 and 116 and 114 and 118 and 125 (2×) and 115 and 105
Animal weight (Group 4 (SCV-07 1 mg/kg, day −1 to day 20), day 16, 1 mg/kg): 113 and 116 (2×) and 114 and 123 and 119 and 128 (2×) and 115 and 107
Animal weight (Group 4 (SCV-07 1 mg/kg, day −1 to day 20), day 17, 1 mg/kg): 114 and 118 and 117 and 120 (2×) and 127 and 131 (2×) and 119 and 110
Animal weight (Group 4 (SCV-07 1 mg/kg, day −1 to day 20), day 18, 1 mg/kg): 116 and 119 (3×) and 120 and 130 and 123 and 132 and 112 and 134
Animal weight (Group 4 (SCV-07 1 mg/kg, day −1 to day 20), day 19, 1 mg/kg): 117 and 119 and 122 and 123 (2×) and 130 and 134 and 121 and 114 and 135
Animal weight (Group 4 (SCV-07 1 mg/kg, day −1 to day 20), day 20, 1 mg/kg): 120 and 122 (4×) and 132 and 125 and 135 and 114 and 133
Animal weight (Group 4 (SCV-07 1 mg/kg, day −1 to day 20), day 21, 1 mg/kg): 121 and 123 (2×) and 126 and 125 and 137 and 128 and 139 and 115 and 138
Animal weight (Group 4 (SCV-07 1 mg/kg, day −1 to day 20), day 22, 1 mg/kg): 123 and 125 (2×) and 129 and 126 and 141 and 130 and 143 and 117 and 142
Animal weight (Group 4 (SCV-07 1 mg/kg, day −1 to day 20), day 23, 1 mg/kg): 124 (2×) and 128 and 127 and 139 and 129 and 143 and 126 and 116 and 144
Animal weight (Group 4 (SCV-07 1 mg/kg, day −1 to day 20), day 24, 1 mg/kg): 130 and 129 (2×) and 133 and 142 and 134 and 145 and 128 and 119 and 148
Animal weight (Group 4 (SCV-07 1 mg/kg, day −1 to day 20), day 25, 1 mg/kg): 130 (3×) and 137 and 131 and 147 and 136 and 148 and 123 and 149
Animal weight (Group 4 (SCV-07 1 mg/kg, day −1 to day 20), day 26, 1 mg/kg): 133 (2×) and 132 and 138 and 131 and 147 and 139 and 150 and 126 and 152
Animal weight (Group 4 (SCV-07 1 mg/kg, day −1 to day 20), day 27, 1 mg/kg): 133 (2×) and 138 and 131 and 145 and 137 and 150 and 132 and 125 and 151
Animal weight (Group 4 (SCV-07 1 mg/kg, day −1 to day 20), day 28, 1 mg/kg): 136 (2×) and 141 and 133 and 150 and 142 and 153 and 135 and 130 and 155
Animal weight (Group 4 (SCV-07 1 mg/kg, day −1 to day 20), day −1, 1 mg/kg): 97 (2×) and 96 and 93 and 87 and 100 and 88 (2×) and 104 and 99
